{
  "source": "patent US11123311B2",
  "about": "“Methods of treating mental disorders” (The Regents of the University of California, priority 2016, dated 2021)",
  "key": {"[1]": {"test_system": "mice after social defeat stress", "test": "repeated social defeat stress model of depression", "assay_type": "in vivo"}, "[2]": {"test_system": "mice after repeated administration of methamphetamine", "test": "behavioral sensitization after repeated administration of methamphetamine", "details": "TPPU 10 mg/kg p.o. 60 min before METH 3.0 mg/kg s.c., 5 days; METH 1.0 mg/kg challenge 7 days later"}},
  "note": "For at least one compound, name, drawing or mass did not settle the structure.",
  "data": [
    {"smiles": "CCC(=O)N1CCC(NC(=O)Nc2ccc(OC(F)(F)F)cc2)CC1", "note": "[TPPU]", "values": [
      {"measurement": "1% sucrose preference test (SPT)", "setting": "[1]; TPPU pretreatment 3 mg/kg/day for 10 days PO, vs vehicle", "value": "increased sucrose preference"},
      {"measurement": "sucrose preference (SPT) in control mice", "setting": "[1]; single TPPU 3 mg/kg PO, control mice", "value": "did not affect"},
      {"measurement": "sucrose preference (SPT)", "setting": "[1]; single TPPU 3 mg/kg PO, mice after social defeat stress", "value": "significantly increased"},
      {"measurement": "development of behavioral sensitization", "setting": "[2]", "value": "prevented"}
    ]}
  ]
}
